From the supplement of paper PMC10849652
This is one part of the list.

Sequences of proteins named here, by UniProt entry; tags and fusion partners are left off. A change or cut given only in a name is not applied to a line headed by its entry.
UniProt P35240: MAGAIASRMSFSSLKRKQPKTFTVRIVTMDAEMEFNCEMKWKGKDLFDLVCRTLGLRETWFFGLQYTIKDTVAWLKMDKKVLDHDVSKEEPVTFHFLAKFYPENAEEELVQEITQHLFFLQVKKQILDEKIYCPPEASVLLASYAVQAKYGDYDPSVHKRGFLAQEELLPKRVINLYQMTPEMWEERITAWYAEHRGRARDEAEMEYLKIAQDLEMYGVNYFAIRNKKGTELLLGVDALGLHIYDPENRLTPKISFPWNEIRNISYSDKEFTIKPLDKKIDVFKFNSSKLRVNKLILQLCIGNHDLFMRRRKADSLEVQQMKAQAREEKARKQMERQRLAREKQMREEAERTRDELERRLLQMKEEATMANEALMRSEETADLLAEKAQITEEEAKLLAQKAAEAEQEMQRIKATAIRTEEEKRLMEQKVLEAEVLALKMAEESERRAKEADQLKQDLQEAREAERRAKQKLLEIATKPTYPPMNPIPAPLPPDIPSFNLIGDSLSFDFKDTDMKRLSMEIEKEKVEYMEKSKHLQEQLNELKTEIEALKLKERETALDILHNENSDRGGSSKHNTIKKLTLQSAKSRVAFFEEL
UniProt Q13287: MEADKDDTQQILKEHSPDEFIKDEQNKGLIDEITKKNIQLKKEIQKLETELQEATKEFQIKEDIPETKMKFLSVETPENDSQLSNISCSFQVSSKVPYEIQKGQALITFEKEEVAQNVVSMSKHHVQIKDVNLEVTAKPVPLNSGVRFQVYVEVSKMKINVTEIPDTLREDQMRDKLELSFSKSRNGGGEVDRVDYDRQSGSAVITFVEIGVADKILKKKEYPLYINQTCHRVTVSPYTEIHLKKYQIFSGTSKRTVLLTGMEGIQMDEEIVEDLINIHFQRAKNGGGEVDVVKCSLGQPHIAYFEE
UniProt Q9Y221: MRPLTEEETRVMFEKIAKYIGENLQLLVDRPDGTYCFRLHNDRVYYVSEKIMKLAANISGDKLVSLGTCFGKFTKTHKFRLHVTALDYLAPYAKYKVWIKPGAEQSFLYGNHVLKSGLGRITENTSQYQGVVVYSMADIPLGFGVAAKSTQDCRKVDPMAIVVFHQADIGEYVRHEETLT
UniProt Q9BYT8, whole entry, looked up: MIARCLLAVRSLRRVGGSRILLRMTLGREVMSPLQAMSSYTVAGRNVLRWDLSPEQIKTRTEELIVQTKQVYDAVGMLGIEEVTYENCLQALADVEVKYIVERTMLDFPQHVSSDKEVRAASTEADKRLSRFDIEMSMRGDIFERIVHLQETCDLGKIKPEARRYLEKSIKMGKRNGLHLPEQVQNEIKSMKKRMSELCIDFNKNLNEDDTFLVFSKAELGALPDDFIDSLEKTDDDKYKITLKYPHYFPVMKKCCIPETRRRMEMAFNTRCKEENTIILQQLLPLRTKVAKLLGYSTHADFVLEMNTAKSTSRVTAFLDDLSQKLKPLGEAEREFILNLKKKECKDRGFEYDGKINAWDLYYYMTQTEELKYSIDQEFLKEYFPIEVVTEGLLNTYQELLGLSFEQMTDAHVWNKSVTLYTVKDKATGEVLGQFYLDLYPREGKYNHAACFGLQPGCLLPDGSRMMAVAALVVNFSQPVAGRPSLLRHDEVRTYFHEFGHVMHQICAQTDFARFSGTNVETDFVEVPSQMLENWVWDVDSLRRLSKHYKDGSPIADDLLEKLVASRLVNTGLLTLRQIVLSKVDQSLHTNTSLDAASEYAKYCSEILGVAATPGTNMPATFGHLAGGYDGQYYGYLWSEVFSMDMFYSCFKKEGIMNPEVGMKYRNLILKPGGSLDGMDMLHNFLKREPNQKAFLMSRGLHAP
UniProt Q9UMX5: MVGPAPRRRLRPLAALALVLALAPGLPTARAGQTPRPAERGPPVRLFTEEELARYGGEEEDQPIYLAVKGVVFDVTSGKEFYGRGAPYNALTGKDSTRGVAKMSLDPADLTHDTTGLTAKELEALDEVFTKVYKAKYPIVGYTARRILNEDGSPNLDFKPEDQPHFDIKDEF
UniProt P24468: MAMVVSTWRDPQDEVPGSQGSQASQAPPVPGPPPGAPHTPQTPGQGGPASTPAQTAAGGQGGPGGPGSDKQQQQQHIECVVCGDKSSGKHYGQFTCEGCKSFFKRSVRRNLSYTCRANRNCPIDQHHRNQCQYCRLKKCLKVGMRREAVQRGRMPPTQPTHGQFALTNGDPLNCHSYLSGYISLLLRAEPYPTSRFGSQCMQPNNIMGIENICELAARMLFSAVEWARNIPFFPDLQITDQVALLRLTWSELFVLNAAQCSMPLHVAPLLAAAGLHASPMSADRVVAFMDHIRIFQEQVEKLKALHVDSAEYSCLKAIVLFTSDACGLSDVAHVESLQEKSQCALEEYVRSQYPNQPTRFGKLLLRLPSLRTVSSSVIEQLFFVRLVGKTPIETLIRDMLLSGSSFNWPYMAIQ
UniProt P21359: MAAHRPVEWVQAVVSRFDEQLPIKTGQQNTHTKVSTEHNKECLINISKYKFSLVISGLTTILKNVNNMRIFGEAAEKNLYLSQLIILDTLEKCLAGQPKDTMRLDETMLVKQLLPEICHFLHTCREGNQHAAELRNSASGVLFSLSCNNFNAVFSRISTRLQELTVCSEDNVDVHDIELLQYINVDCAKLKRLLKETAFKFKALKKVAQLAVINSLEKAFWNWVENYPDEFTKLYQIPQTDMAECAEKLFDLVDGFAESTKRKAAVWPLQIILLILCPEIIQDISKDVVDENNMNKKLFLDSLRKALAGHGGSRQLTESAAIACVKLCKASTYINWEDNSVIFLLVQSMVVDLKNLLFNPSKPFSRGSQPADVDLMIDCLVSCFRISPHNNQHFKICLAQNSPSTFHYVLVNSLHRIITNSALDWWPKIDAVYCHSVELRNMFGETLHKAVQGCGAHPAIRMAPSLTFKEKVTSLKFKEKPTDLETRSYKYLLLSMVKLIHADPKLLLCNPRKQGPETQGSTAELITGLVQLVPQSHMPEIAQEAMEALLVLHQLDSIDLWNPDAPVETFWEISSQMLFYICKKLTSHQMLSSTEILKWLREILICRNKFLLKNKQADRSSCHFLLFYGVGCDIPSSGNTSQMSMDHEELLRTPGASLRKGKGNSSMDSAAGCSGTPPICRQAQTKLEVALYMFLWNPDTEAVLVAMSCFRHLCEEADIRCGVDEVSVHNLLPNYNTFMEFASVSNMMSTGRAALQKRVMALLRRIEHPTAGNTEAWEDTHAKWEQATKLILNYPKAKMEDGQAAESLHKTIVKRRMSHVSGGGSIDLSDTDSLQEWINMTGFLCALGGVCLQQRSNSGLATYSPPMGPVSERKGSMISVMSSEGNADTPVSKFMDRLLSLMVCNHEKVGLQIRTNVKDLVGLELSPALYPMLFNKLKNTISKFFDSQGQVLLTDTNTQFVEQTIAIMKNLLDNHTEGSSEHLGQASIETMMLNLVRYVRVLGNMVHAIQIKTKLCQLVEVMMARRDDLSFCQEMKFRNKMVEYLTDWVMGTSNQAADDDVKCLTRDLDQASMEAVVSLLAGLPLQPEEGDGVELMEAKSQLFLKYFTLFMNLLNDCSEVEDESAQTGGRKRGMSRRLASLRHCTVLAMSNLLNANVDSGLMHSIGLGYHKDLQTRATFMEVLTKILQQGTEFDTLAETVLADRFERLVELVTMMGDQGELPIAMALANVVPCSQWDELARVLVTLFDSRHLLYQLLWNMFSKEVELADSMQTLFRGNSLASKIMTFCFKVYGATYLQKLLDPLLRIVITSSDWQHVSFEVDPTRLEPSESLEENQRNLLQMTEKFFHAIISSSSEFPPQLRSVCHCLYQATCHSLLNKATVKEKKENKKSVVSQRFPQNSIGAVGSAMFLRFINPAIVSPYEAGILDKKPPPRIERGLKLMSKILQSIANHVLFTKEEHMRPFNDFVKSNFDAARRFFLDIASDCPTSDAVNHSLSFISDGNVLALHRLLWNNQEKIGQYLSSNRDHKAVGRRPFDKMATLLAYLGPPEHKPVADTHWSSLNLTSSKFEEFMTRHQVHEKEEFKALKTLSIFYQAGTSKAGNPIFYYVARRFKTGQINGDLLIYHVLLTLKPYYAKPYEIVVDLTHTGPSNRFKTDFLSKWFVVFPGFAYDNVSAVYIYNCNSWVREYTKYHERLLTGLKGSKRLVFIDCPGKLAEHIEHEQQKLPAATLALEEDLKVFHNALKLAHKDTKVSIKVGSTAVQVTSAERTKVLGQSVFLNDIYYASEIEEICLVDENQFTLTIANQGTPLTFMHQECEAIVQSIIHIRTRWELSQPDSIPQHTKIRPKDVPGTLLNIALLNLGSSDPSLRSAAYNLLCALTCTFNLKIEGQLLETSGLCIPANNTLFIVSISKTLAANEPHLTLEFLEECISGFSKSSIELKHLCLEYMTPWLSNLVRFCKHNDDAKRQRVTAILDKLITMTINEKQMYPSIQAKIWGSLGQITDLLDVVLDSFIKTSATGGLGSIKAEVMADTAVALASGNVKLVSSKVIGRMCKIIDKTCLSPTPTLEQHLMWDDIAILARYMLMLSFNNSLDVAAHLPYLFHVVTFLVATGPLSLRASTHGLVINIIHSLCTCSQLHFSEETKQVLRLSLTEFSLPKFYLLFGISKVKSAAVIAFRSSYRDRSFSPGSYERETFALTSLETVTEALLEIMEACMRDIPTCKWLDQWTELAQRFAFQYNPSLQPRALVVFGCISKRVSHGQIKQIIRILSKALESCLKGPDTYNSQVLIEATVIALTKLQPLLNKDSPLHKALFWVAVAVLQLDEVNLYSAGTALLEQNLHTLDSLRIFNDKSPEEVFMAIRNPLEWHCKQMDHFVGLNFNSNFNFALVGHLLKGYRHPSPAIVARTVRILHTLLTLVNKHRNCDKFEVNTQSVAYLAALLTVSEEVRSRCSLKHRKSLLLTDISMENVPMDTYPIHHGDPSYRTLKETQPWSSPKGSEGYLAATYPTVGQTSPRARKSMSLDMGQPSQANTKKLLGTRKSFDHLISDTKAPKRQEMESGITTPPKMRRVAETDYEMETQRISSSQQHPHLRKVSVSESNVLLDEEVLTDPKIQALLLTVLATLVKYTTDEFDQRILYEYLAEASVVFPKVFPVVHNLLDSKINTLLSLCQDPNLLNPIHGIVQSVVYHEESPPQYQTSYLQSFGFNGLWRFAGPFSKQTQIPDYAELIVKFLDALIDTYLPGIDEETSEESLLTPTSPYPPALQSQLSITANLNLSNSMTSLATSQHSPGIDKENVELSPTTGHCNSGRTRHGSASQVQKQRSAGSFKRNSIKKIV
UniProt Q9Y697: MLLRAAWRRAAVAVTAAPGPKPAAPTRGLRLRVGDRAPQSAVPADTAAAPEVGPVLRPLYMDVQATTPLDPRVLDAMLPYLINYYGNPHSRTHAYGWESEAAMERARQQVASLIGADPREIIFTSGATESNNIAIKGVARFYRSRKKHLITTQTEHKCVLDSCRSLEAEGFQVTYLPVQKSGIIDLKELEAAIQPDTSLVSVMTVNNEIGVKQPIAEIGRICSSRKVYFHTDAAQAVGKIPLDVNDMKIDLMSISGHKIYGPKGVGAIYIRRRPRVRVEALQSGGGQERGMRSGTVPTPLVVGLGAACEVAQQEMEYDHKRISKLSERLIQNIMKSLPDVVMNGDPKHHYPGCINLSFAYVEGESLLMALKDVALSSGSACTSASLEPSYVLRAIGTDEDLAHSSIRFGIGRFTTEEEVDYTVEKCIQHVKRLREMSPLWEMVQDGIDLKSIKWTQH
UniProt Q86X76: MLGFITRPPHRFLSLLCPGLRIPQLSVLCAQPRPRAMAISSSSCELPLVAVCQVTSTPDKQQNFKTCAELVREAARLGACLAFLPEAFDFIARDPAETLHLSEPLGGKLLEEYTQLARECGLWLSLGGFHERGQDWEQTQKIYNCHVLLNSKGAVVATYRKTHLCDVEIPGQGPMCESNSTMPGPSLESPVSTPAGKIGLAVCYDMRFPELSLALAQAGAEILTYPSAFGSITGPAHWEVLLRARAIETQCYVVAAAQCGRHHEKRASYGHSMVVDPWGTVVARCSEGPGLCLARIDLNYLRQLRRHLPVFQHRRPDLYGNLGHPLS
UniProt Q9H9Q4: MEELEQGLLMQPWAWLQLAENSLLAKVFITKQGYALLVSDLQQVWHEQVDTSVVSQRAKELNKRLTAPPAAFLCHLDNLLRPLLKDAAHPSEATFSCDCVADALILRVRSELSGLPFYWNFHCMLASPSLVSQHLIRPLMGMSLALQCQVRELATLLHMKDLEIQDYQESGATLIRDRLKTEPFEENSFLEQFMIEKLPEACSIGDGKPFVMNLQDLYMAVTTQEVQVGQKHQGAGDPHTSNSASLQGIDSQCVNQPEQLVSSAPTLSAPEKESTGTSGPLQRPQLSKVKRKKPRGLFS
UniProt P06748, whole entry, looked up: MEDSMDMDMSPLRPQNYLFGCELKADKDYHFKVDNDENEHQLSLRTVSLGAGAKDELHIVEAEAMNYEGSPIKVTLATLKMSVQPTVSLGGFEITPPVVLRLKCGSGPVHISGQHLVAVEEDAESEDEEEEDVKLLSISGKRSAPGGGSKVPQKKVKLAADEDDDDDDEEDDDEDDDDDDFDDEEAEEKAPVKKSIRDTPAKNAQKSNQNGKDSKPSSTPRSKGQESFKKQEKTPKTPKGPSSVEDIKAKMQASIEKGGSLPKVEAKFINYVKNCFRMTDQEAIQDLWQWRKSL

Compound: c1cn2cc(-c3ccc4cn[nH]c4c3)nc(Nc3ccc(N4CCOCC4)cc3)c2n1 [entospletinib]
Assay: log2 fold change, soluble protein after heating vs DMSO (PISA); higher = thermal stabilisation; K562 cells, 10 uM, 30 min; active = over 0.2 and 3.5 SD of the protein, either way, in both replicates (recomputed)
Method in brief: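 K562 cells (2×10^6 cells/mL) were treated with 10 μM compound for 30 min, and aliquots were heated for 3 min over 48°C-58°C. Pooled aliquots were extracted in PBS with 0.5% NP-40 at 4°C, and the supernatant after 21,000xg for 90 min was measured by TMTpro 16plex LC-MS/MS with channel sums equalised. Reported thermal stability, relative to control samples and from duplicates, is a log2 fold change.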

log2 fold change, inactive:
NF2 (UniProt P35240) 0.023, NMI (UniProt Q13287) -0.013, NIPBL (UniProt Q6KC79) 0.057, NIP7 (UniProt Q9Y221) 0.096, NPLOC4 isoform 2 (UniProt Q8TAT6) -0.019, NLN (UniProt Q9BYT8) -0.034, NIF3L1 (UniProt Q9GZT8) 0.039, NMNAT3 (UniProt Q96T66) -0.068, NENF (UniProt Q9UMX5) 0.012, NFXL1 (UniProt Q6ZNB6) -0.014, NR2F2 (UniProt P24468) -0.013, NF1 (UniProt P21359) 0.043, NOMO2 (UniProt Q5JPE7) -0.023, NIFK (UniProt Q9BYG3) -0.03, NONO (UniProt Q15233) 0.109, NEK7 (UniProt Q8TDX7) -0.034, NFS1 (UniProt Q9Y697) -0.029, NIT1 (UniProt Q86X76) 0.013, NRBF2 (UniProt Q96F24) -0.011, NHEJ1 (UniProt Q9H9Q4) 0.024, NIPA1 (UniProt Q7RTP0) -0.117, NHP2 (UniProt Q9NX24) -0.036, NOD1 (UniProt Q9Y239) 0.116, NPM1 (UniProt P06748) 0.133
